For 1 molecule, binding results are on record in patent US20180066029A1.

This assay concerns the target H3K4me3-modified histone H3 peptide (CelluSpots peptide array) (UniProt P68431). Briefly: CelluSpots histone peptide array.

These are yes or no findings as the source states them, for the method shown. Some results given as binding are weak or reduced against the parent protein; the word gives no strength.

B1: single PHD domain of TAF3 (protein, UniProt Q5VWG9 857-924, looked up, not shown: a dimerising Fc or GST)
chain: IRDEWGNQIWICPGCNKPDDGSPMIGCDDCDDWYHWPCVGIMTAPPEEMQWFCPKCANKKKDKKHKKR
Regarding B1, the binding entry was “binds”.
